Results on 37 compounds are retold here after PubChem BioAssay AID2685 (National Center for Advancing Translational Sciences (NCATS), 2010).

Some of the results follow. Shown are side measurements of this screen, not its main read-out; they come without a call. Compounds called inactive in the main read-out are mostly missing here. Words in brackets tell the shape of the fitted curve; partial curves, single points and poor fits give uncertain potencies.

A short description of this experiment: qHTS Assay for Lipid Storage Modulators in Drosophila S3 Cells.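 On cell number change: cells counted by Cell Tracker Red CMTPX staining in the red channel.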 The following applies: BODIPY lipid droplet fluorescence, 18-24 h; for cell number change: measured here: cell count max response, cells fed with added oleic acid. In short, it runs like this: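 Drosophila S3 cells loaded with oleic acid (400 uM, as added) and compounds at several concentrations; lipid droplets imaged by 488-nm laser-scanning cytometry, 500–530 nm intensity and object ratio to cell channel. Percent activity normalized to 20 uM Triacsin C.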

The mark [1] stands for this setting: measured here: cell number channel AC50, cells fed with added oleic acid.
Setting [2] is: measured here: lipid fluorescence (Fed channel) AC50, cells fed with added oleic acid.

For `COC(=O)[C@H](CC(C)C)NC(=O)Nc1ccc2c(c1)OCCO2`, the cell number change was -21.7%. For the same compound, the AC50 under setting [1] is 0.13 µM [falling, full curve, poor fit]. Further, the AC50 under setting [2] was 18.4 µM [falling, partial curve].

With `Cc1nc2ccc(S(=O)(=O)Nc3cccc(-c4nc5cccnc5s4)c3C)cc2s1`, the cell number change was -34.1%. Besides, the AC50 under setting [1] is 20.6 µM [falling, single point]. The AC50 under setting [2] was 29.1 µM [falling, single point].

Consider `CN(Cc1ccccc1)c1nc(N)nc(Cl)c1C=O`, for which the cell number change was -0.782%. Also, under setting [2], the AC50 is 2.06 µM [falling, partial curve, poor fit].

With `CN(Cc1ccccc1)S(=O)(=O)c1ccc(NC(=S)NC(=O)C2CCCCC2)cc1`, the cell number change was -16.1%. In addition, under setting [2], the AC50 is 25.9 µM [falling, single point].

For the compound `COC(=O)c1ccc(CSc2nc3ccccc3c(=O)n2CC(C)C)o1`, the cell number change was -43.8%. Further, the AC50 under setting [2] was 0.146 µM [rising, full curve, poor fit].

Take `CN(c1ccc([N+](=O)[O-])cc1C(=O)Nc1ccccc1)C1CCCCC1`: the cell number change is 36.8%.

As to `O=C(O)Cc1c(C(=O)O)nnn1-c1ccc(Cl)cc1Cl`, the cell number change came out at 92.7%. Also, under setting [2], the AC50 is 29.1 µM [rising, single point].

As for `CC(=O)NCCc1nc2cc(NC(=O)COc3cccc(C)c3)ccc2n1C`, the AC50 under setting [2] was 6.51 µM [falling, single point].

As for `Cc1ccc(NS(=O)(=O)c2ccc3c(c2)NC(=O)CCS3)cc1C`, the cell number change was -7.55%. The AC50 under setting [2] is 6.51 µM [falling, single point].

In the case of `CN1CCN(c2nc(-c3cc4ccccc4o3)cs2)CC1`, the concentration at half-maximal activity (AC50) under setting [2] is 3.26 µM [rising, partial curve, poor fit].

For `N#CC(C#N)=C1C=CC=CN1/C(=C\c1ccco1)C(=O)c1ccccc1`, the cell number change was -39.6%. Besides, under setting [1], the AC50 is 7.31 µM [falling, partial curve]. Besides, the AC50 under setting [2] is 5.8 µM [falling, full curve].

For the compound `COC(=O)c1sc(=S)n(Cc2ccccc2)c1C`, the cell number change is -30.6%. For the same compound, under setting [1], the AC50 was 7.31 µM [falling, partial curve]. Under setting [2], the AC50 is 4.61 µM [falling, full curve].

`CN(c1ccc(C(=O)NCC2CCCO2)cc1)S(C)(=O)=O` (centres undefined): the cell number change is -82.7%. Besides, the AC50 under setting [1] was 32.6 µM [falling, partial curve, poor fit].

As to `COc1ccc2nc(N3C(=O)CNC3=S)sc2c1`, the cell number change is -22.1%. Further, the concentration at half-maximal activity (AC50) under setting [2] is 13 µM [falling, partial curve, poor fit].

On to `Clc1ccc(NCc2cccnc2)cc1`, for which the cell number change came to 22.8%. In addition, under setting [2], the AC50 was 7.31 µM [rising, partial curve, poor fit].

Take `O=C(Nc1cccnc1)c1noc2c1CCCC2`: the cell number change was -4.2%. For the same compound, the half-maximal activity concentration (AC50) under setting [2] was 6.51 µM [rising, single point].

As for `N#C/C(=C\c1ccccn1)c1nc2ccccc2s1`, the cell number change is -33.4%. Moreover, under setting [1], the AC50 is 7.31 µM [falling, partial curve]. Further, the AC50 under setting [2] is 5.8 µM [falling, full curve].

As to `O=C(NCSc1ccccc1)c1ccccc1`, the cell number change was determined as 22.1%. Under setting [2], the AC50 was 16.4 µM [rising, partial curve].

With `O=C(O)CSCC(=O)Nc1ccc(-c2nc3ccccc3s2)cc1`, the cell number change is -12.4%. Besides, under setting [1], the AC50 is 0.00731 µM [falling, full curve, poor fit]. Under setting [2], the AC50 was 0.082 µM [falling, full curve, poor fit].

As for `COc1ccc(NC(=O)C2=Cc3cccc(OC)c3OC2)cc1`, the cell number change turned out to be 18.5%. In addition, the concentration at half-maximal activity (AC50) under setting [2] is 3.66 µM [falling, single point].

Regarding `CC(C(=O)Nc1ccc(S(N)(=O)=O)cc1)N1CCc2ccccc21` (centres undefined), the cell number change is 6.01%.

Take `Cc1ccsc1/C=N/n1c(COc2ccccc2)n[nH]c1=S`: the cell number change is -40.5%. Further, under setting [1], the AC50 is 14.6 µM [falling, single point]. Further, the half-maximal activity concentration (AC50) under setting [2] is 16.4 µM [falling, single point].

For the compound `CN1c2ccccc2-c2nc3ccccc3n2C1c1ccncc1` (centres undefined), the cell number change turned out to be 15.6%. The AC50 under setting [2] is 0.58 µM [rising, full curve].

`NNC(=O)[C@H]1C[C@@H]1c1ccccc1`: the cell number change was -8.56%. Besides, the AC50 under setting [2] is 6.51 µM [rising, single point].

For `O=C(Nc1ccc(C(=O)N2CCC(N3CCOCC3)CC2)cc1)c1ccc(Br)o1`, the cell number change worked out at 10.6%. In addition, the AC50 under setting [2] is 29.1 µM [rising, single point].

With `Cc1ccc(NC(=O)/C(C#N)=C/c2cc(C)n(-c3ccc(N4CCOCC4)c([N+](=O)[O-])c3)c2C)c(C)c1`, the cell number change was -10.4%. The AC50 under setting [2] is 4.61 µM [falling, single point].

`CC(=O)Nc1nonc1-c1nc2ccccc2n1CC1CC1`: the cell number change was -6.71%. Moreover, the AC50 under setting [2] was 2.06 µM [rising, full curve].

Consider `O=C(COc1cccc(Br)c1)N/N=C1\CCCc2ccccc21`, for which the cell number change was found to be 25%. For the same compound, the AC50 under setting [1] was 0.231 µM [rising, full curve, poor fit]. The AC50 under setting [2] was 20.6 µM [rising, partial curve].

`Cc1c(C(=O)N2CCN(Cc3ccc4c(c3)OCO4)CC2)cccc1[N+](=O)[O-]`: the cell number change was -13.2%. Further, the AC50 under setting [1] is 6.51 µM [rising, single point].

With `O=C(NCc1ccncc1)C(=O)Nc1nc(C23CC4CC(CC(C4)C2)C3)cs1`, the cell number change was 34.6%. Moreover, the AC50 under setting [1] was 3.26 µM [rising, partial curve]. Moreover, the AC50 under setting [2] was 0.366 µM [rising, full curve].

Consider `O=C(COC(=O)CNC(=O)c1ccc(Cl)cc1)NC1CCCCCC1`, for which the cell number change is -11.7%. Besides, under setting [1], the AC50 is 0.00517 µM [falling, full curve, poor fit]. Further, the AC50 under setting [2] was 0.00461 µM [falling, full curve, poor fit].

On to `CCOc1cc(C2Nc3ccccc3NC3=C2C(=O)CC(C)(C)C3)ccc1O` (centres undefined), for which the cell number change was -1.31%. In addition, the AC50 under setting [2] was 6.51 µM [falling, single point].

For `COC(CNC(=O)c1ccc2nc(-c3cccs3)c(-c3cccs3)nc2c1)OC`, the cell number change was found to be 20.4%. For the same compound, the AC50 under setting [2] is 13 µM [rising, partial curve, poor fit].

For the compound `Cc1cccc(NS(=O)(=O)c2ccc(-c3ccc(=O)[nH]n3)o2)c1`, the cell number change came out at 18.3%. In addition, the AC50 under setting [2] was 6.51 µM [falling, single point].

As for `CC(=O)C1=C(C)N(CC2CC2)C(=O)N[C@H]1c1cccs1`, the cell number change was found to be 0.675%. Under setting [2], the AC50 is 29.1 µM [falling, single point].

With `O=C1CC(N2CCN(c3ccc(O)cc3)CC2)C(=O)N1Cc1cccs1` (centres undefined), the cell number change was 17%.

For the compound `CCOC(=O)c1c(C)nc2sc(C(=O)Nc3ccccc3)c(N)c2c1-c1ccc(OC)cc1`, the cell number change is -13.8%. Besides, the AC50 under setting [2] was 20.6 µM [rising, single point].
